In patent US20100279930A1 (published 2010) one finds IC50 data, which are given here for 1 molecule.

Amino acid sequences for entries named in this document (tags omitted). A change or cut given only in a name is not applied to a line headed by its entry.
UniProt P50391: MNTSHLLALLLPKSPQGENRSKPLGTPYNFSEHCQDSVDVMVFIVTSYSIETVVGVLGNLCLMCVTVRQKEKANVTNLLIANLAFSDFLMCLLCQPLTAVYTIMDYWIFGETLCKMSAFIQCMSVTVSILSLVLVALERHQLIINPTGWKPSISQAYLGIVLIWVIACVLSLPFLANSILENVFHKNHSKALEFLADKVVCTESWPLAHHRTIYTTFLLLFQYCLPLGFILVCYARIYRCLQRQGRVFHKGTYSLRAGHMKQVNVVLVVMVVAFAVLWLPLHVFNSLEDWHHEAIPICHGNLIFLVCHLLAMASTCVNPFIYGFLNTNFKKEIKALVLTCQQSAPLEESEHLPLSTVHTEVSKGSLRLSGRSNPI

The target in this test is human Y4 receptor (human, UniProt P50391 1-375). In words: 125I-PP displacement.

B1: 4058066 (protein)
chain: CAPLEPTYPGDNATPEQLARYYSALRRYINLLTRPRYCAPLEPTYPGDNATPEQLARYYSALRRYINLLTRPRY
A word on the IC50: it is the midpoint of a concentration-inhibition curve. Lower therefore signals higher potency. In turn, B1 had an IC50 of 0.143 nM.
